Measurements reported in PubChem BioAssay AID602196 (INSERM, 2012).
The whole screen tested about 23,000 reagents; this is a random part of them. In the full data, 455 (2%) were called active. 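Active includes both protection and sensitisation; some change values fall well beyond the stated -50 to +50 range.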 Not all columns of the deposit are shown. Not stated in the record: the amount of reagent.

- Aim: 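Knock-downs that protect lung cancer cells from cisplatin or sensitise them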
- System: human A549 lung cancer cells
- Reagent: siRNA pair against human genes
- Time to read-out: 48 h transfection before cisplatin; time from cisplatin to read-out not stated
- Conditions: cisplatin at a dose killing half of control-siRNA cells; exact dose and duration not given
- Read-out: 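Shift in cisplatin death relative to control siRNA, from -50 (all cells die) to +50 (no cells die); siRNAs harmful on their own scored 0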
- Scale: two-siRNA summed score (-2 to +2): higher = both siRNAs protect from cisplatin killing; -2 means both sensitise
- Hit rule: 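siRNAs harmful alone (LDH or WST-1) get 0; others get +1 for less and -1 for more cisplatin killing; genes are active when the two siRNAs give the same sign, summing to ±2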
- Meaning of the calls: active = both siRNAs shift cisplatin killing the same way; inactive = no consistent shift, or siRNA harmful alone

After knock-down of BPNT2, the screen gave two-siRNA summed score (-2 to +2) = 0; inactive.
After knock-down of ARMH1, the screen gave two-siRNA summed score (-2 to +2) = 0; inactive.
LOC391764 (retired record) gave two-siRNA summed score (-2 to +2) = 0; inactive.
For IER3, the values are two-siRNA summed score (-2 to +2) = 0; inactive.
OR8I2 gave two-siRNA summed score (-2 to +2) = 0; inactive.
Against BASP1, the values are two-siRNA summed score (-2 to +2) = 0; inactive.
Against NRXN3, the values are two-siRNA summed score (-2 to +2) = 0; inactive.
BRCA2 showed two-siRNA summed score (-2 to +2) = 0; inactive.
HSBP1 showed two-siRNA summed score (-2 to +2) = 0; inactive.
Silencing of SOX17 gave: two-siRNA summed score (-2 to +2) = -1; inactive.
LOC401169 gave two-siRNA summed score (-2 to +2) = 0; inactive.
After knock-down of LOC283331, the screen gave two-siRNA summed score (-2 to +2) = 0; inactive.
For DNM1DN4-1 the deposit lists two-siRNA summed score (-2 to +2) = 1; inactive.
Silencing of MUS81 gave: two-siRNA summed score (-2 to +2) = 0; inactive.
For WIPF1, the entry reads two-siRNA summed score (-2 to +2) = 0; inactive.
LOC164045 showed two-siRNA summed score (-2 to +2) = -1; inactive.
DERL1 gave two-siRNA summed score (-2 to +2) = 0; inactive.

Reprinted from the listing (3 entries):
IER3 | two-siRNA summed score (-2 to +2) = 0; Call = inactive
OR8I2 | two-siRNA summed score (-2 to +2) = 0; Call = inactive
BASP1 | two-siRNA summed score (-2 to +2) = 0; Call = inactive

More results:
After knock-down of TRIML2, the screen gave two-siRNA summed score (-2 to +2) = 0; inactive.
NACC2 gave two-siRNA summed score (-2 to +2) = 0; inactive.
With knock-down of TUBB6, the screen gave two-siRNA summed score (-2 to +2) = 0; inactive.
With knock-down of ARF4, the record shows two-siRNA summed score (-2 to +2) = 0; inactive.
ZNF326 showed two-siRNA summed score (-2 to +2) = 0; inactive.
PBK gave two-siRNA summed score (-2 to +2) = 0; inactive.
With knock-down of SPATA18 the results were two-siRNA summed score (-2 to +2) = 0; inactive.
For TOMM34, the entry reads two-siRNA summed score (-2 to +2) = 0; inactive.
Knock-down of KIAA0040 came out at: two-siRNA summed score (-2 to +2) = 0; inactive.
DEFB121 showed two-siRNA summed score (-2 to +2) = 1; inactive.
NOD1 gave two-siRNA summed score (-2 to +2) = 0; inactive.
For SGF29 the deposit lists two-siRNA summed score (-2 to +2) = 1; inactive.
After knock-down of GNG13, the screen gave two-siRNA summed score (-2 to +2) = 0; inactive.
For SLC25A2, the values are two-siRNA summed score (-2 to +2) = 1; inactive.
Knock-down of KRT77 resulted in: two-siRNA summed score (-2 to +2) = 0; inactive.
Knock-down of LILRA1 resulted in: two-siRNA summed score (-2 to +2) = -1; inactive.
PRPSAP1 showed two-siRNA summed score (-2 to +2) = 0; inactive.
After knock-down of NT5C1B the results were two-siRNA summed score (-2 to +2) = 0; inactive.
After knock-down of SLC43A2, the screen gave two-siRNA summed score (-2 to +2) = 0; inactive.
For OR2AG2 the deposit lists two-siRNA summed score (-2 to +2) = 2; active.
Against RFC3 the deposit lists two-siRNA summed score (-2 to +2) = 0; inactive.
Depletion of RDH8 came out at: two-siRNA summed score (-2 to +2) = 0; inactive.
After knock-down of LOC401937 the results were two-siRNA summed score (-2 to +2) = 2; active.
